Assay results reported in publication PMC3973330, “A highly divergent archaeo-eukaryotic primase from the Thermococcus nautilus plasmid, pTN2”.
The exact form of at least one protein or probe is not confirmed. A weaker result is weaker than the reference pair of the same experiment. Where a protein sequence is shown, tags need not be part of it.

Target: T1, PolpTN2 (Thermococcus nautilus (plasmid pTN2)) (UniProt D6MY06)
T1 sequence (looked up, limits assumed): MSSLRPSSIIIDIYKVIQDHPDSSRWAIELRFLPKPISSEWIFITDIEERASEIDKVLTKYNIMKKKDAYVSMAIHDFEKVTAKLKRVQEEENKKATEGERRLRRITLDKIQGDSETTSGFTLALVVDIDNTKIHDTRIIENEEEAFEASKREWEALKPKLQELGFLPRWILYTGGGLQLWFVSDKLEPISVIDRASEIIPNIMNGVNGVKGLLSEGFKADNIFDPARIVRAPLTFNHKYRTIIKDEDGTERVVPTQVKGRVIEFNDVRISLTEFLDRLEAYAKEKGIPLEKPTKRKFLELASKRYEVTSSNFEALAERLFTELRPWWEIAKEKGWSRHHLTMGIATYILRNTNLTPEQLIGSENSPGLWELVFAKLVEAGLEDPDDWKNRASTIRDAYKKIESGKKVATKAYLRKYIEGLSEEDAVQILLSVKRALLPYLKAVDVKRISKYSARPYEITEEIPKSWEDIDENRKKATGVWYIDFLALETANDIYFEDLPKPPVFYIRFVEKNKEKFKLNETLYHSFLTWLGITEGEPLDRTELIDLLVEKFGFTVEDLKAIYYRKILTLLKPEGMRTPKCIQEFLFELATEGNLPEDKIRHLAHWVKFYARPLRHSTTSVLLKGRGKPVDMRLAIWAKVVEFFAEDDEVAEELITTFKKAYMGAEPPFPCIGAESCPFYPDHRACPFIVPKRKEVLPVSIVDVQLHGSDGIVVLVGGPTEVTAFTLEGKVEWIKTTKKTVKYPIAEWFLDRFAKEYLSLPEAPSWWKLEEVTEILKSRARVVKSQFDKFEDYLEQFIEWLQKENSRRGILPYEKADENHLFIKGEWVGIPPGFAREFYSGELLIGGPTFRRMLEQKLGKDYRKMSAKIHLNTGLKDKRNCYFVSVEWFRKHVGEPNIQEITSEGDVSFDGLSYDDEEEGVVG
Test: EMSA
Conditions: 10 mM Mg2+, very little shifted material, EMSA: 50 mM Tris-HCl pH 8, 20 mM KCl, 10 mM MgCl2, 7.5 nM probe, 30 min at 65 C, 10% native PAGE in TBE, recombinant protein, protein details: His-tag (pDEST17), label: 32P

Row | Sequence | binding result (single-stranded DNA) | binding result
1 | AGAGGGTTCAAAAAATGGTTTCACCCCAAA [30 DNA] | binds more weakly | –
2 | AGAGGGUUCAAAAAAUGGUUUCACCCCAAA [30 RT] | – | binds more weakly
